## Small-molecule microarray binding calls

Oligonucleotides screened, 5′ to 3′:
PreQ1: PreQ1 riboswitch RNA pseudoknot, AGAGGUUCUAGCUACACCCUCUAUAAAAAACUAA. From B. subtilis. About 24,000 compounds screened, about 170 hits.
SAM-II: SAM-II riboswitch RNA pseudoknot, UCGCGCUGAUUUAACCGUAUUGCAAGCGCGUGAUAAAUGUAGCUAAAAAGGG. About 21,000 compounds screened, about 200 hits.
TPP: TPP riboswitch RNA three-way junction, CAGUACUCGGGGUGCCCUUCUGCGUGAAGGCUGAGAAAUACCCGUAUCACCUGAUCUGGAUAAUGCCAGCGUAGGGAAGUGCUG. About 24,000 compounds screened, about 160 hits.

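Each compound is printed as two spots on a slide made to bind it covalently, so it has no test concentration; the read-out is fluorescence of the bound, labelled oligonucleotide. For the PreQ1, TPP and SAM-II riboswitches the laboratory earlier reported (doi:10.1038/s41467-019-09493-3) 1 µM RNA, 2 h, and a rule that included a mean Z-score above 3 (spot signal-to-noise against the whole library), a score well above that on a control array, and duplicate spots agreeing (coefficient of variation under 100). The data file gives only the calls; its cut-offs may differ, and compounds hitting several targets are kept. The calls come from the array alone, and fixing a compound to the slide can hide its binding.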
Key: hit = hit, none = tested without a hit.
The compounds are a random part of those screened.
A target missing from an entry has no call listed here.

{"structure": "Cc1cc2cc3n(c2nn1)N=C(Cl)CC3", "PreQ1": "none", "SAM-II": "none", "TPP": "none"}
{"structure": "c1cn(C2CCN(C3CCSCC3)CC2)c(-c2cc3n(n2)CCNC3)n1", "PreQ1": "none", "SAM-II": "none", "TPP": "none"}
{"structure": "Cn1c(=O)[nH]c(=O)c2c1nc(N1CCN(CCO)CC1)n2Cc1ccccc1", "PreQ1": "none", "TPP": "none"}
{"structure": "C[NH2+]c1ccc(C(C2=C([O-])COC2=O)c2cc(OC)c(OC)c(OC)c2)cc1", "stereo": "configuration not stated", "PreQ1": "none", "SAM-II": "none", "TPP": "none"}
{"structure": "OCc1ccc(CC2CCN(Cc3cc(CN4CCCC4)cs3)C2)cc1", "stereo": "configuration not stated", "PreQ1": "none", "SAM-II": "none", "TPP": "none"}
{"structure": "C=CCc1cc(C)ccc1OCC(O)Cn1c(C)nc2ccccc21", "stereo": "configuration not stated", "PreQ1": "none", "SAM-II": "none", "TPP": "none"}
{"structure": "COc1ccc(CCNc2nc3ccc(C)cc3cc2-c2noc(C)n2)cc1OC", "PreQ1": "none", "TPP": "none"}
{"structure": "Cn1c(C2=C(N)N(c3ccc(N4CCCCC4)cc3)CC2=O)nc2ccccc21", "PreQ1": "none", "TPP": "none"}
{"structure": "OC1CCN(c2ccnc(N3CCC(OCc4cccnc4)CC3)n2)C1", "stereo": "configuration not stated", "PreQ1": "none", "SAM-II": "none", "TPP": "none"}
{"structure": "O=C(O)CCCNc1ccc(S(=O)(=O)N2CCOCC2)cc1", "PreQ1": "none", "SAM-II": "none", "TPP": "none"}
{"structure": "CCNC(=O)[C@@H]1C[C@H](N)CN1C(=O)c1ccccc1-n1cncn1", "PreQ1": "none", "SAM-II": "none", "TPP": "none"}
{"structure": "CN(C)CCNc1nc(-c2ccc(C(C)(C)C)cc2)nc2ccccc12", "PreQ1": "none", "SAM-II": "none", "TPP": "none"}
{"structure": "CCN1CCN(C2(CNc3oc(-c4ccc(Cl)cc4)nc3C#N)CCCCC2)CC1", "PreQ1": "none", "SAM-II": "none", "TPP": "none"}
{"structure": "Cc1ccc(Nc2ncnc3c2oc2ccccc23)cc1", "PreQ1": "none", "SAM-II": "none", "TPP": "none"}
{"structure": "O=S(=O)(c1ccccc1)N1CCC(NC2Cc3ccccc3C2)CC1", "PreQ1": "none", "SAM-II": "none", "TPP": "none"}
{"structure": "Cc1nc(-c2ccccc2)nc2c1c(N)nn2Cc1ccc(Cl)cc1Cl", "PreQ1": "hit", "SAM-II": "none", "TPP": "none"}
{"structure": "c1ccc(-c2nc3c(c(NCCCc4nnn[nH]4)n2)CCNCC3)nc1", "PreQ1": "none", "SAM-II": "none", "TPP": "none"}
{"structure": "CNc1nc(Cl)nc(Oc2ccc(=O)n(C)n2)n1", "PreQ1": "none", "SAM-II": "none", "TPP": "none"}
{"structure": "COc1ccc(CNc2ncc(-c3ccc(Br)cc3)n2C)cc1OC", "PreQ1": "none", "SAM-II": "none", "TPP": "none"}
{"structure": "COc1cc2cc(c1Cl)N(C)C(=O)C[C@H](OC(=O)C(C)C)[C@]1(C)O[C@H]1[C@H](C)[C@@H]1C[C@@](O)(NC(=O)O1)[C@H](OC)/C=C\\C=C(\\C)C2", "PreQ1": "none", "SAM-II": "none", "TPP": "none"}
{"structure": "Cc1[nH]nc2c1C(c1ccc(C(C)C)cc1)C(C#N)=C(N)O2", "stereo": "configuration not stated", "PreQ1": "none", "SAM-II": "none", "TPP": "none"}
{"structure": "CCN1CCN(S(=O)(=O)CCN)CC1", "PreQ1": "none", "SAM-II": "none", "TPP": "none"}
{"structure": "Cc1cc(C)c(C)c(Cn2c(CO)nc3ccccc32)c1C", "PreQ1": "none", "TPP": "none"}
{"structure": "Cc1nccc(N2CC[C@H](N3CCN(C)CC3)[C@H](CCCO)C2)n1", "PreQ1": "none", "SAM-II": "none", "TPP": "none"}
{"structure": "COC(=O)Nc1csc2c1NC(=O)CCCC2", "PreQ1": "none", "SAM-II": "none", "TPP": "none"}
{"structure": "CCc1nnc2c(NCCCN3CCCC3=O)nc3ccccc3n12", "PreQ1": "none", "TPP": "none"}
{"structure": "COc1ccc(Cn2nnc(C(=O)Nc3ccc(F)c(F)c3)c2N)cc1Br", "PreQ1": "none", "SAM-II": "none", "TPP": "none"}
{"structure": "CCCC(=O)Oc1ccc(C2C(C#N)=C(N)OC3=C2C(=O)CC(C)(C)C3)cc1", "stereo": "configuration not stated", "PreQ1": "none", "SAM-II": "none", "TPP": "none"}
{"structure": "CCc1ccc(NC(=O)Cn2nnc(C(=O)NCCc3ccccc3)c2N)cc1", "PreQ1": "none", "SAM-II": "none", "TPP": "none"}
{"structure": "Nc1cc(C(=O)N2C[C@H]3CC[C@@H]2CN(Cc2cscn2)C3)ccn1", "PreQ1": "none", "SAM-II": "none", "TPP": "none"}
{"structure": "CS(=O)(=O)N(CC(O)Cn1c2ccc(Cl)cc2c2cc(Cl)ccc21)c1ccccc1", "stereo": "configuration not stated", "PreQ1": "none", "SAM-II": "none", "TPP": "none"}
{"structure": "CC1(C)Cc2c(c(-c3ccco3)nc3sc4c(NC5CCCCC5)ncnc4c23)CO1", "PreQ1": "none", "SAM-II": "none", "TPP": "none"}
{"structure": "CC(C)CC(NC(=O)C1=NNC(=O)CC1)c1nnc2n1CCNCC2", "stereo": "configuration not stated", "PreQ1": "none", "SAM-II": "none", "TPP": "none"}
{"structure": "Nc1nnc(SCC(=O)N2c3ccccc3Sc3ccccc32)[nH]1", "PreQ1": "none", "SAM-II": "none", "TPP": "hit"}
{"structure": "CCOC(=O)c1c(C)n(C)c2ccc(O)cc12", "PreQ1": "none", "SAM-II": "none", "TPP": "none"}
{"structure": "NCC1CCN(Cc2ccc(C(F)(F)F)cc2)C1", "stereo": "configuration not stated", "PreQ1": "none", "SAM-II": "none", "TPP": "none"}
{"structure": "CCOC(=O)N1CCN(c2c(NC(C)CC)c(=O)c2=O)CC1", "stereo": "configuration not stated", "PreQ1": "none", "TPP": "none"}

Source: the ROBIN nucleic acid binder screens (doi:10.1002/anie.202211358).